# Reference: the supplement of paper PMC8166895
# Structures can show the parent of a compound that is named as a salt. The list shows a part of the results. Most entries show no effect beyond the scatter of the controls.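 Differential scanning fluorimetry gave melting temperatures in a one-replicate pilot screen of a library of approved drugs plus clinical or known-target compounds. Hits increasing melting point at least 2 °C were the strongest stabilizers, while negative shifts signify destabilization.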
# Test system: SARS-CoV-2 main protease (Mpro, nsp5)
# Test: thermal shift ΔTm of Mpro relative to plate average Tm; higher = stronger thermal stabilization of Mpro (binding)
# Conditions: 10 µM; protein concentration 1 µM
row,Structure (SMILES),thermal shift ΔTm of Mpro [°C]
1,CCC(N)(C(=O)O)c1ccc(C(=O)O)cc1 (stereo not given),-0.0783
2,CCOC(=O)c1ccc(OC(=O)CCCCCNC(=N)N)cc1 [Gabexate Mesylate],0.139
3,Cc1cc(C#N)c(N)s1 [2-Amino-5-methyl-3-thiophenecarbonitrile],0.272
4,CCCN[C@H]1CCc2nc(N)sc2C1 [Pramipexole dihydrochloride monohydrate],0.0369
5,CCCN[C@H]1CCc2nc(N)sc2C1 [Pramipexole],-0.0901
6,CC(C)(C)Cn1c(N)nc2ccc(-c3[nH]c(C(C)(C)C)nc3-c3ccc(F)cc3)nc21,0.0143
7,O=C(NC1CCN(CCCCC2(C(=O)NCC(F)(F)F)c3ccccc3-c3ccccc32)CC1)c1ccccc1-c1ccc(C(F)(F)F)cc1 [Lomitapide Mesylate],-0.0583
8,O=C(NC1CCN(CCCCC2(C(=O)NCC(F)(F)F)c3ccccc3-c3ccccc32)CC1)c1ccccc1-c1ccc(C(F)(F)F)cc1 [Lomitapide],-0.206
9,COc1ccc(C(=O)CC2(O)C(=O)Nc3c(Cl)ccc(Cl)c32)cc1 (stereo not given),-0.179
10,Cc1cc(=O)oc2cc(O)ccc12 [4-Methylumbelliferone (4-MU)],-0.0796
11,C/C=C1/[C@H](O[C@@H]2O[C@H](CO)[C@@H](O)[C@H](O)[C@H]2O)OC=C(C(=O)OC)[C@H]1CC(=O)OCCc1ccc(O)c(O)c1 [Oleuropein],1.97
12,Clc1cccc(-c2nnnn2Cc2cccnc2)c1Cl,-0.172
13,CC(C)C[C@H](NC(=O)[C@@H](COC(C)(C)C)NC(=O)[C@H](Cc1ccc(O)cc1)NC(=O)[C@H](CO)NC(=O)[C@H](Cc1c[nH]c2ccccc12)NC(=O)[C@H](Cc1cnc[nH]1)NC(=O)[C@@H]1CCC(=O)N1)C(=O)N[C@@H](CCCNC(=N)N)C(=O)N1CCC[C@H]1C(=O)NNC(N)=O [Goserelin acetate],0.146
14,COc1cccc(-c2ccc(NC(=O)C3=C(C(=O)O)CCC3)c(F)c2)c1 [Vidofludimus],0.169
15,Cn1c(=O)c2nc[nH]c2n(C)c1=O [Theophylline monohydrate],0.165
16,N#Cc1ccc(-c2c(-c3ncn[nH]3)sc(N3CCOCC3)c2C#N)c(F)c1,-0.206
17,COc1cc2c(Oc3ccc4[nH]c(C)cc4c3F)ccnc2cc1OCC1(N)CC1 [Anlotinib Dihydrochloride],-0.105
18,CC(C)(C)c1[nH]cnc1/C=c1\[nH]c(=O)/c(=C/c2ccccc2)[nH]c1=O [Plinabulin (NPI-2358)],0.0766
19,Cn1c(=O)cc(N2CCC[C@@H](N)C2)n(Cc2cc(F)ccc2C#N)c1=O [Trelagliptin succinate],0.144
20,Cn1c(=O)cc(N2CCC[C@@H](N)C2)n(Cc2cc(F)ccc2C#N)c1=O [Trelagliptin],-0.255

# Fetched one by one from the list above (two):
row,Structure (SMILES),thermal shift ΔTm of Mpro [°C]
1,CCC(N)(C(=O)O)c1ccc(C(=O)O)cc1 (stereo not given),-0.0783
15,Cn1c(=O)c2nc[nH]c2n(C)c1=O [Theophylline monohydrate],0.165
